Measurements reported in doi:10.1101/2025.09.03.674114.
No constants are given. Whether binding was seen depends on the method and setting. Binding seen in cells or lysates may run through a third protein. A yes stands for co-enrichment or nearness to the bait. Other partners may have been found.

Amino acid sequences for entries named in this document (tags omitted).
UniProt Q38SD2: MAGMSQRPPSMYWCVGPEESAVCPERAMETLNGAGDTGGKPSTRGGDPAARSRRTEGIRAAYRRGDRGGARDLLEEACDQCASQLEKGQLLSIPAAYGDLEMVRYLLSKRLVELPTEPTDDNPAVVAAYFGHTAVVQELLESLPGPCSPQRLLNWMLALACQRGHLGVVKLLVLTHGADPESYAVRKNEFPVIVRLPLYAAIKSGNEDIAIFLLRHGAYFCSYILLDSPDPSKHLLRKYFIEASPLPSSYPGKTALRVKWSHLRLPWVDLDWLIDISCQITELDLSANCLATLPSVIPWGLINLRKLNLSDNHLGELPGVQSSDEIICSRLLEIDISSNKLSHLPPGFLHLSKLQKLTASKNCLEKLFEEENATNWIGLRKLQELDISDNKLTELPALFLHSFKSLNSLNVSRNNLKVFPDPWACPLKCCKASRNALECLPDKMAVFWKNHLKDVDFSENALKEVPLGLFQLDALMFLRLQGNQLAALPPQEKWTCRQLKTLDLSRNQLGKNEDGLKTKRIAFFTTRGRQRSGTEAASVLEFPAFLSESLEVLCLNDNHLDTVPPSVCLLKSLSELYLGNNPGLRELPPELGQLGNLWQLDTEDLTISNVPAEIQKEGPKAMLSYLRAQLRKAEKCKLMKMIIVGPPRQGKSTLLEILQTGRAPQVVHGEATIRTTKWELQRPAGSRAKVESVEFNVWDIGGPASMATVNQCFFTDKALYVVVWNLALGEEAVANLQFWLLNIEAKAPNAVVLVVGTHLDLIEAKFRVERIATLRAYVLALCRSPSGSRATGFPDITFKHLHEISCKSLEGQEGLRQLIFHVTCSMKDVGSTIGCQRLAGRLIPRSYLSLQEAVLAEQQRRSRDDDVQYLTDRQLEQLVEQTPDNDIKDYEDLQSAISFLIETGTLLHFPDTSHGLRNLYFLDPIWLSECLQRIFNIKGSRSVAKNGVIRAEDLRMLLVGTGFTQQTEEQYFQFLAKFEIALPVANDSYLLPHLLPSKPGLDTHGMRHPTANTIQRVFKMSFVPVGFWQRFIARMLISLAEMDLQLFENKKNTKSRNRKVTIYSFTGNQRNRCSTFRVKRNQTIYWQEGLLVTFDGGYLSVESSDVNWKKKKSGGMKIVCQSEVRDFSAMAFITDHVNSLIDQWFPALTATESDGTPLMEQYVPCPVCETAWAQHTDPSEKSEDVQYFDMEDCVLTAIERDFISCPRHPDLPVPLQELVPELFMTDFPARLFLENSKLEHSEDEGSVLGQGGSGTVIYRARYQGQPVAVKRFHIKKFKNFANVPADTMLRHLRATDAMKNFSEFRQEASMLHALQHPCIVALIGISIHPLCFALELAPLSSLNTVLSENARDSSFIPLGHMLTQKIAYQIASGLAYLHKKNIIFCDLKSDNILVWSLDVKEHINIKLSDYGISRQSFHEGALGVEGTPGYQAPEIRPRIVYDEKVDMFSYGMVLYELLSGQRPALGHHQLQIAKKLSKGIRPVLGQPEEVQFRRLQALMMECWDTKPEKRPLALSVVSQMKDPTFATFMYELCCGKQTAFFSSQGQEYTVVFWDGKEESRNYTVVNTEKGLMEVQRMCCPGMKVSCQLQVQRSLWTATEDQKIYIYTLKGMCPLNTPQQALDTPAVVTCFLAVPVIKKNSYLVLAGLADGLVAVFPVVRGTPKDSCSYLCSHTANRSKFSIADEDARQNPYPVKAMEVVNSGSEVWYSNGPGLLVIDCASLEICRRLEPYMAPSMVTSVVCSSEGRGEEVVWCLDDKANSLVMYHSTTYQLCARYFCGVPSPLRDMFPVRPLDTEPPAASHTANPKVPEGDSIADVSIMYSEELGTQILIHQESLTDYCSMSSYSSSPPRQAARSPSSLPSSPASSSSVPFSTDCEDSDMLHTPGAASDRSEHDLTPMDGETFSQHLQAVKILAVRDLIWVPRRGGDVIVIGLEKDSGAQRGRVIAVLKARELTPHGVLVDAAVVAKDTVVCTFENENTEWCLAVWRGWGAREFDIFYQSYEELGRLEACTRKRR
UniProt P62993: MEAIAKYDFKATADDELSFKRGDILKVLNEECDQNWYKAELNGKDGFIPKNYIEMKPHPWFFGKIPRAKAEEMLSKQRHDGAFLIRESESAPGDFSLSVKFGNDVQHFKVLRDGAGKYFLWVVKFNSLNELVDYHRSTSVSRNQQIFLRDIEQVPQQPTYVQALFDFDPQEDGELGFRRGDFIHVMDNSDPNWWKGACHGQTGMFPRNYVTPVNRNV
UniProt Q13596: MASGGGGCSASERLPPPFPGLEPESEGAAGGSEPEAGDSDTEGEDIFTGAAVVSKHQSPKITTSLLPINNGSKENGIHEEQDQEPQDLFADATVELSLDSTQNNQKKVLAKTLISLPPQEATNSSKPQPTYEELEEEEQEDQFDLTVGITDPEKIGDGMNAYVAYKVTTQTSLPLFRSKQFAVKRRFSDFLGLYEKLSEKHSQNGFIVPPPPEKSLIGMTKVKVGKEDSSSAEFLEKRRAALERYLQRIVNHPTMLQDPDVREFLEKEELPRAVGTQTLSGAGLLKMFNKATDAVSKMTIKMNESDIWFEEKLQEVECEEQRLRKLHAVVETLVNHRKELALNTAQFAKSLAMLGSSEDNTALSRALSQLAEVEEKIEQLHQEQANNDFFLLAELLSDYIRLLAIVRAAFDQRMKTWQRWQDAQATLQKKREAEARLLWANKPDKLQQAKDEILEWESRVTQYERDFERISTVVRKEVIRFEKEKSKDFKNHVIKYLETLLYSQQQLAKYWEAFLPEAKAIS
UniProt P68363: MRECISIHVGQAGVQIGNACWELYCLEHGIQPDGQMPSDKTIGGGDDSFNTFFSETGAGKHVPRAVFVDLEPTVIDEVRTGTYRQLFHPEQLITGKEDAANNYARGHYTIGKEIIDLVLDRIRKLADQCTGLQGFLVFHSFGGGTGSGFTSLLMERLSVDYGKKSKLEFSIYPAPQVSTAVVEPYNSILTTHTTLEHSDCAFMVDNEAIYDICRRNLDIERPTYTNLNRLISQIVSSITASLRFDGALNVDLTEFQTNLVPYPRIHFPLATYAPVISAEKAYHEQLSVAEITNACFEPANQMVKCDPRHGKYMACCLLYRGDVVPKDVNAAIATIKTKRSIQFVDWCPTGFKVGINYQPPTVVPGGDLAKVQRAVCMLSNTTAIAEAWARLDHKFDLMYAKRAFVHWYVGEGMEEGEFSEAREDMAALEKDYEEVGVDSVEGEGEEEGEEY
UniProt P61006: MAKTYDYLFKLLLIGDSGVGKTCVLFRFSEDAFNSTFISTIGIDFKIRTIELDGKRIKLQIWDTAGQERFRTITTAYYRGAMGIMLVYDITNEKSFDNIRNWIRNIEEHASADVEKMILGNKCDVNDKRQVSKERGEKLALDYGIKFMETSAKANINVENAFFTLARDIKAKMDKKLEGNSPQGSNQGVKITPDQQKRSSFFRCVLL
UniProt Q5S007: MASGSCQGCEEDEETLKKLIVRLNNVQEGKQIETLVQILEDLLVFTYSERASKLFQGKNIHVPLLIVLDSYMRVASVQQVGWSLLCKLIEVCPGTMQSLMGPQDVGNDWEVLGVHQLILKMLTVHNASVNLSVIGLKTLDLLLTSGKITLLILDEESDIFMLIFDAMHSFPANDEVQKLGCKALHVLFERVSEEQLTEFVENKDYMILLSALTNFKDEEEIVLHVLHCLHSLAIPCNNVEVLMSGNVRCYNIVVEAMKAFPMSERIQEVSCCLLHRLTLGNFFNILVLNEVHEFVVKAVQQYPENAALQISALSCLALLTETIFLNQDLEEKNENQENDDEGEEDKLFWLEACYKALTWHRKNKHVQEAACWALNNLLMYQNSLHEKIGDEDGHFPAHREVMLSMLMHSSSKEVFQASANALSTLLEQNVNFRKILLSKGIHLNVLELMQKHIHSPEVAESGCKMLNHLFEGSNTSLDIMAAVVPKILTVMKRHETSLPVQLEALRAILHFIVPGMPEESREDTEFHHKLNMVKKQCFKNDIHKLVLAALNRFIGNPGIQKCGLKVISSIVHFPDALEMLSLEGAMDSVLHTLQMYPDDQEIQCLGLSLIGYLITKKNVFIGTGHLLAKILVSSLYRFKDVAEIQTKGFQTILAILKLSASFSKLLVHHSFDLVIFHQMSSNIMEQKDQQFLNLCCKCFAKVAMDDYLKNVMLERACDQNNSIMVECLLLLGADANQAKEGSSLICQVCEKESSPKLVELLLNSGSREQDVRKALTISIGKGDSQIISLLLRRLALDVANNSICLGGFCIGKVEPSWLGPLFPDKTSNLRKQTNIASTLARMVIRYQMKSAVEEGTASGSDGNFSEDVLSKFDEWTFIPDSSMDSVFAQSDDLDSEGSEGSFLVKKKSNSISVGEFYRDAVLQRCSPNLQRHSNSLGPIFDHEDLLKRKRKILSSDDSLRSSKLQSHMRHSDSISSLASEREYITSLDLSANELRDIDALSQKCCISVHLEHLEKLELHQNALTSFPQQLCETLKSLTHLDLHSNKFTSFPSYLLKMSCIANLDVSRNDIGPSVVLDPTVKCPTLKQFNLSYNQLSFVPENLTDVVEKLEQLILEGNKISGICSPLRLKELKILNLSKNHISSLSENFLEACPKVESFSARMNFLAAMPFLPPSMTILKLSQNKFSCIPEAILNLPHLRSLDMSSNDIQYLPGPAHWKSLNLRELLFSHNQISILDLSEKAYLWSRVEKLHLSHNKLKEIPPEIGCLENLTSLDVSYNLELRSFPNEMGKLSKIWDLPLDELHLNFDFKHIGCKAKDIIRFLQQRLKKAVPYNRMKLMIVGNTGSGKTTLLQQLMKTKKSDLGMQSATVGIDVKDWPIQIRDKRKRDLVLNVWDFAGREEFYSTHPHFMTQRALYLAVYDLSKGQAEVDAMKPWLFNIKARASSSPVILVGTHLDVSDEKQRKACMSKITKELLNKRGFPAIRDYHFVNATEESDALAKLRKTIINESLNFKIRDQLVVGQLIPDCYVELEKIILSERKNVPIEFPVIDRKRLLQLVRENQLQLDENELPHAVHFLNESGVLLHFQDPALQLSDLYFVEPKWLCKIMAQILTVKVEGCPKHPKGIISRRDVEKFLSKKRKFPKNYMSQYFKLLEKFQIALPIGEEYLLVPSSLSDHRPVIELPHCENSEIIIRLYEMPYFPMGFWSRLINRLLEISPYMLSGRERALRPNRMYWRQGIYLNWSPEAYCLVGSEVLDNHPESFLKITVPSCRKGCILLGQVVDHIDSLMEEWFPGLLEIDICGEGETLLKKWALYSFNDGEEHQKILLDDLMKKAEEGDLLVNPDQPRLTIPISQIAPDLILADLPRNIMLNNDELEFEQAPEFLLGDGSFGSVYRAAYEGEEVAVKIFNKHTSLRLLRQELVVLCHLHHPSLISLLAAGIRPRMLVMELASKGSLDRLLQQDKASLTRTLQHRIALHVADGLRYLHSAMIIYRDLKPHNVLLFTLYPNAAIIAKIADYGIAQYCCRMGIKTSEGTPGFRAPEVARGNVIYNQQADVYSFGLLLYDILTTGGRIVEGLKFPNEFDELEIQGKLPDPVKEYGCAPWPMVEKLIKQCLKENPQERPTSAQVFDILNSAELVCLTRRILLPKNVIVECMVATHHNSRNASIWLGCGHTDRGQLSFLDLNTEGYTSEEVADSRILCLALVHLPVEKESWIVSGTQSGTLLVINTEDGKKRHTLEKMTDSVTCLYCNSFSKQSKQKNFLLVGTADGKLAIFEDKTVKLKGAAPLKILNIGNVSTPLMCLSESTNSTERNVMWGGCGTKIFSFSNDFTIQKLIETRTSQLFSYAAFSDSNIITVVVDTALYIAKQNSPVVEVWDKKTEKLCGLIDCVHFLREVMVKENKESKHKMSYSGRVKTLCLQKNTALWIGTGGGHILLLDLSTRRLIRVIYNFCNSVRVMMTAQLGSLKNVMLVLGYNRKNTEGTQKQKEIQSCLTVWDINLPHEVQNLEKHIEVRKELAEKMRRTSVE

B1: Rab39A (protein, UniProt Q14964 1-217)
chain: METIWIYQFRLIVIGDSTVGKSCLLHRFTQGRFPGLRSPACDPTVGVDFFSRLLEIEPGKRIKLQLWDTAGQERFRSITRSYYRNSVGGFLVFDITNRRSFEHVKDWLEEAKMYVQPFRIVFLLVGHKCDLASQRQVTREEAEKLSADCGMKYIETSAKDATNVEESFTILTRDIYELIKKGEICIQDGWEGVKSGFVPNTVHSSEEAVKPRKECFC
B2: Rab34 (protein, UniProt Q9BZG1 1-259)
chain: MNILAPVRRDRVLAELPQCLRKEAALHGHKDFHPRVTCACQEHRTGTVGFKISKVIVVGDLSVGKTCLINRFCKDTFDKNYKATIGVDFEMERFEVLGIPFSLQLWDTAGQERFKCIASTYYRGAQAIIIVFNLNDVASLEHTKQWLADALKENDPSSVLLFLVGSKKDLSTPAQYALMEKDALQVAQEMKAEYWAVSSLTGENVREFFFRVAALTFEANVLAELEKSGARRIGDVVRINSDDSNLYLTASKKKPTCCP
B3: Vps52 (protein, UniProt Q8N1B4 1-723)
chain: MAAAATMAAAARELVLRAGTSDMEEEEGPLAGGPGLQEPLQLGELDITSDEFILDEVDVHIQANLEDELVKEALKTGVDLRHYSKQVELELQQIEQKSIRDYIQESENIASLHNQITACDAVLERMEQMLGAFQSDLSSISSEIRTLQEQSGAMNIRLRNRQAVRGKLGELVDGLVVPSALVTAILEAPVTEPRFLEQLQELDAKAAAVREQEARGTAACADVRGVLDRLRVKAVTKIREFILQKIYSFRKPMTNYQIPQTALLKYRFFYQFLLGNERATAKEIRDEYVETLSKIYLSYYRSYLGRLMKVQYEEVAEKDDLMGVEDTAKKGFFSKPSLRSRNTIFTLGTRGSVISPTELEAPILVPHTAQRGEQRYPFEALFRSQHYALLDNSCREYLFICEFFVVSGPAAHDLFHAVMGRTLSMTLKHLDSYLADCYDAIAVFLCIHIVLRFRNIAAKRDVPALDRYWEQVLALLWPRFELILEMNVQSVRSTDPQRLGGLDTRPHYITRRYAEFSSALVSINQTIPNERTMQLLGQLQVEVENFVLRVAAEFSSRKEQLVFLINNYDMMLGVLMERAADDSKEVESFQQLLNARTQEFIEELLSPPFGGLVAFVKEAEALIERGQAERLRGEEARVTQLIRGFGSSWKSSVESLSQDVMRSFTNFRNGTSIIQGALTQLIQLYHRFHRVLSQPQLRALPARAELINIHHLMVELKKHKPNF
B4: DSN1 (protein, UniProt Q9H410 1-356)
chain: MTSVTRSEIIDEKGPVMSKTHDHQLESSLSPVEVFAKTSASLEMNQGVSEERIHLGSSPKKGGNCDLSHQERLQSKSLHLSPQEQSASYQDRRQSWRRASMKETNRRKSLHPIHQGITELSRSISVDLAESKRLGCLLLSSFQFSIQKLEPFLRDTKGFSLESFRAKASSLSEELKHFADGLETDGTLQKCFEDSNGKASDFSLEASVAEMKEYITKFSLERQTWDQLLLHYQQEAKEILSRGSTEAKITEVKVEPMTYLGSSQNEVLNTKPDYQKILQNQSKVFDCMELVMDELQGSVKQLQAFMDESTQCFQKVSVQLGKRSMQQLDPSPARKLLKLQLQNPPAIHGSGSGSCQ
B5: GOLGA2 (protein, UniProt Q08379 1-1002)
chain: MWPQPRLPPRPAMSEETRQSKLAAAKKKLREYQQRNSPGVPTGAKKKKKIKNGSNPETTTSGGCHSPEDTPKDNAATLQPSDDTVLPGGVPSPGASLTSMAASQNHDADNVPNLMDETKTFSSTESLRQLSQQLNGLVCESATCVNGEGPASSANLKDLESRYQQLAVALDSSYVTNKQLNITIEKLKQQNQEITDQLEEEKKECHQKQGALREQLQVHIQTIGILVSEKAELQTALAHTQHAARQKEGESEDLASRLQYSRRRVGELERALSAVSTQQKKADRYNKELTKERDALRLELYKNTQSNEDLKQEKSELEEKLRVLVTEKAGMQLNLEELQKKLEMTELLLQQFSSRCEAPDANQQLQQAMEERAQLEAHLGQVMESVRQLQMERDKYAENLKGESAMWRQRMQQMSEQVHTLREEKECSMSRVQELETSLAELRNQMAEPPPPEPPAGPSEVEQQLQAEAEHLRKELEGLAGQLQAQVQDNEGLSRLNREQEERLLELERAAELWGEQAEARRQILETMQNDRTTISRALSQNRELKEQLAELQSGFVKLTNENMEITSALQSEQHVKRELGKKLGELQEKLSELKETVELKSQEAQSLQQQRDQYLGHLQQYVAAYQQLTSEKEVLHNQLLLQTQLVDQLQQQEAQGKAVAEMARQELQETQERLEAATQQNQQLRAQLSLMAHPGEGDGLDREEEEDEEEEEEEAVAVPQPMPSIPEDLESREAMVAFFNSAVASAEEEQARLRGQLKEQRVRCRRLAHLLASAQKEPEAAAPAPGTGGDSVCGETHRALQGAMEKLQSRFMELMQEKADLKERVEELEHRCIQLSGETDTIGEYIALYQSQRAVLKERHREKEEYISRLAQDKEEMKVKLLELQELVLRLVGDRNEWHGRFLAAAQNPADEPTSGAPAPQELGAANQQGDLCEVSLAGSVEPAQGEAREGSPRDNPTAQQIMQLLREMQNPRERPGLGSNPCIPFFYRADENDEVKITVI

Target: TurboID-LRRK1 fusion construct (Leucine-rich repeat kinase 1) (UniProt Q38SD2)
Experiment: proximity labelling

binding, binds:
Epidermal Growth Factor Receptor (from UniProt P00533 25-1210)
Grb2 (from UniProt P62993 1-217)
sorting nexin SNX1 (from UniProt Q13596 1-522)
TUBA1B (from UniProt P68363 1-451)
Rab8A (from UniProt P61006 1-207)
B1
B2
B3

Target: 3xFLAG-turboID-LRRK2 (Leucine-rich repeat kinase 2) (UniProt Q5S007)
Experiment: proximity labelling

binding, binds:
Rab8A (from UniProt P61006 1-207)
B4
B1
B5
B3
